Assay results as given in patent EP0960942A2.
Results are given in words; binding and its absence hold for the method and conditions named. Some results given as binding are weak or reduced against the parent protein; the word gives no strength.

Chains of the proteins cited; added tags and fusions are not shown.
UniProt P30825: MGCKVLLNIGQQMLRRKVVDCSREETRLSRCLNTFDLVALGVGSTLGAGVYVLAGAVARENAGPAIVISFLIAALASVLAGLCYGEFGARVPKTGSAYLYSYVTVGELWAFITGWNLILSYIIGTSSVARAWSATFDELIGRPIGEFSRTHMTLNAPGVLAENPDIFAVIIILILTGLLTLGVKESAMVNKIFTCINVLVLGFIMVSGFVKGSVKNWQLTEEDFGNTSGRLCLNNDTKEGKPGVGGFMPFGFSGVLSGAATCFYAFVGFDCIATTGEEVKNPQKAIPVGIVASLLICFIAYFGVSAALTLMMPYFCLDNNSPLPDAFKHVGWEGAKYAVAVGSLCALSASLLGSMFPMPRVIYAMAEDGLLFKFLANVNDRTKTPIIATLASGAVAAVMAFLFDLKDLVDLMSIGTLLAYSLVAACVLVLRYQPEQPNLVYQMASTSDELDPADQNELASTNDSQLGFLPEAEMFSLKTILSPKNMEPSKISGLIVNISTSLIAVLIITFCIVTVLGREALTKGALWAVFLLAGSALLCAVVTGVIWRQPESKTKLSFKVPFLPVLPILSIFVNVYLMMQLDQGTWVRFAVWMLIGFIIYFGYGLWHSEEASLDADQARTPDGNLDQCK

Assays:
[1] = biological target: biotinylated hCAT1 peptide (synthetic peptide of the predicted third extracellular domain of hCAT1, N-terminal biotin and linker KRR) (human); test: phage ELISA on biotinylated hCAT1 peptide captured on streptavidin
[2] = biological target: human cationic amino acid transporter-1 (hCAT1) on 911-hCAT1-k08 cells (human) (UniProt P30825); test: titering of cell bound, eluted and cell associated phage on E.coli
[3] = biological target: human cationic amino acid transporter-1 (hCAT1) on 911-hCAT1-k08 cells (human) (UniProt P30825); test: flow cytometry, 10^11 phage on 911-pcDNA3 and 911-hCAT1(k08) cells, anti-m13 detection

Measured: binding

m13 phage displaying the 12 mer peptide … (clone # 26) (from UniProt P69168 19-424)
binds: all assays above
